From publication PMC12154654 come the findings set out here.

Sequences of proteins named here, by UniProt entry; tags and fusion partners are left off.
UniProt P42859: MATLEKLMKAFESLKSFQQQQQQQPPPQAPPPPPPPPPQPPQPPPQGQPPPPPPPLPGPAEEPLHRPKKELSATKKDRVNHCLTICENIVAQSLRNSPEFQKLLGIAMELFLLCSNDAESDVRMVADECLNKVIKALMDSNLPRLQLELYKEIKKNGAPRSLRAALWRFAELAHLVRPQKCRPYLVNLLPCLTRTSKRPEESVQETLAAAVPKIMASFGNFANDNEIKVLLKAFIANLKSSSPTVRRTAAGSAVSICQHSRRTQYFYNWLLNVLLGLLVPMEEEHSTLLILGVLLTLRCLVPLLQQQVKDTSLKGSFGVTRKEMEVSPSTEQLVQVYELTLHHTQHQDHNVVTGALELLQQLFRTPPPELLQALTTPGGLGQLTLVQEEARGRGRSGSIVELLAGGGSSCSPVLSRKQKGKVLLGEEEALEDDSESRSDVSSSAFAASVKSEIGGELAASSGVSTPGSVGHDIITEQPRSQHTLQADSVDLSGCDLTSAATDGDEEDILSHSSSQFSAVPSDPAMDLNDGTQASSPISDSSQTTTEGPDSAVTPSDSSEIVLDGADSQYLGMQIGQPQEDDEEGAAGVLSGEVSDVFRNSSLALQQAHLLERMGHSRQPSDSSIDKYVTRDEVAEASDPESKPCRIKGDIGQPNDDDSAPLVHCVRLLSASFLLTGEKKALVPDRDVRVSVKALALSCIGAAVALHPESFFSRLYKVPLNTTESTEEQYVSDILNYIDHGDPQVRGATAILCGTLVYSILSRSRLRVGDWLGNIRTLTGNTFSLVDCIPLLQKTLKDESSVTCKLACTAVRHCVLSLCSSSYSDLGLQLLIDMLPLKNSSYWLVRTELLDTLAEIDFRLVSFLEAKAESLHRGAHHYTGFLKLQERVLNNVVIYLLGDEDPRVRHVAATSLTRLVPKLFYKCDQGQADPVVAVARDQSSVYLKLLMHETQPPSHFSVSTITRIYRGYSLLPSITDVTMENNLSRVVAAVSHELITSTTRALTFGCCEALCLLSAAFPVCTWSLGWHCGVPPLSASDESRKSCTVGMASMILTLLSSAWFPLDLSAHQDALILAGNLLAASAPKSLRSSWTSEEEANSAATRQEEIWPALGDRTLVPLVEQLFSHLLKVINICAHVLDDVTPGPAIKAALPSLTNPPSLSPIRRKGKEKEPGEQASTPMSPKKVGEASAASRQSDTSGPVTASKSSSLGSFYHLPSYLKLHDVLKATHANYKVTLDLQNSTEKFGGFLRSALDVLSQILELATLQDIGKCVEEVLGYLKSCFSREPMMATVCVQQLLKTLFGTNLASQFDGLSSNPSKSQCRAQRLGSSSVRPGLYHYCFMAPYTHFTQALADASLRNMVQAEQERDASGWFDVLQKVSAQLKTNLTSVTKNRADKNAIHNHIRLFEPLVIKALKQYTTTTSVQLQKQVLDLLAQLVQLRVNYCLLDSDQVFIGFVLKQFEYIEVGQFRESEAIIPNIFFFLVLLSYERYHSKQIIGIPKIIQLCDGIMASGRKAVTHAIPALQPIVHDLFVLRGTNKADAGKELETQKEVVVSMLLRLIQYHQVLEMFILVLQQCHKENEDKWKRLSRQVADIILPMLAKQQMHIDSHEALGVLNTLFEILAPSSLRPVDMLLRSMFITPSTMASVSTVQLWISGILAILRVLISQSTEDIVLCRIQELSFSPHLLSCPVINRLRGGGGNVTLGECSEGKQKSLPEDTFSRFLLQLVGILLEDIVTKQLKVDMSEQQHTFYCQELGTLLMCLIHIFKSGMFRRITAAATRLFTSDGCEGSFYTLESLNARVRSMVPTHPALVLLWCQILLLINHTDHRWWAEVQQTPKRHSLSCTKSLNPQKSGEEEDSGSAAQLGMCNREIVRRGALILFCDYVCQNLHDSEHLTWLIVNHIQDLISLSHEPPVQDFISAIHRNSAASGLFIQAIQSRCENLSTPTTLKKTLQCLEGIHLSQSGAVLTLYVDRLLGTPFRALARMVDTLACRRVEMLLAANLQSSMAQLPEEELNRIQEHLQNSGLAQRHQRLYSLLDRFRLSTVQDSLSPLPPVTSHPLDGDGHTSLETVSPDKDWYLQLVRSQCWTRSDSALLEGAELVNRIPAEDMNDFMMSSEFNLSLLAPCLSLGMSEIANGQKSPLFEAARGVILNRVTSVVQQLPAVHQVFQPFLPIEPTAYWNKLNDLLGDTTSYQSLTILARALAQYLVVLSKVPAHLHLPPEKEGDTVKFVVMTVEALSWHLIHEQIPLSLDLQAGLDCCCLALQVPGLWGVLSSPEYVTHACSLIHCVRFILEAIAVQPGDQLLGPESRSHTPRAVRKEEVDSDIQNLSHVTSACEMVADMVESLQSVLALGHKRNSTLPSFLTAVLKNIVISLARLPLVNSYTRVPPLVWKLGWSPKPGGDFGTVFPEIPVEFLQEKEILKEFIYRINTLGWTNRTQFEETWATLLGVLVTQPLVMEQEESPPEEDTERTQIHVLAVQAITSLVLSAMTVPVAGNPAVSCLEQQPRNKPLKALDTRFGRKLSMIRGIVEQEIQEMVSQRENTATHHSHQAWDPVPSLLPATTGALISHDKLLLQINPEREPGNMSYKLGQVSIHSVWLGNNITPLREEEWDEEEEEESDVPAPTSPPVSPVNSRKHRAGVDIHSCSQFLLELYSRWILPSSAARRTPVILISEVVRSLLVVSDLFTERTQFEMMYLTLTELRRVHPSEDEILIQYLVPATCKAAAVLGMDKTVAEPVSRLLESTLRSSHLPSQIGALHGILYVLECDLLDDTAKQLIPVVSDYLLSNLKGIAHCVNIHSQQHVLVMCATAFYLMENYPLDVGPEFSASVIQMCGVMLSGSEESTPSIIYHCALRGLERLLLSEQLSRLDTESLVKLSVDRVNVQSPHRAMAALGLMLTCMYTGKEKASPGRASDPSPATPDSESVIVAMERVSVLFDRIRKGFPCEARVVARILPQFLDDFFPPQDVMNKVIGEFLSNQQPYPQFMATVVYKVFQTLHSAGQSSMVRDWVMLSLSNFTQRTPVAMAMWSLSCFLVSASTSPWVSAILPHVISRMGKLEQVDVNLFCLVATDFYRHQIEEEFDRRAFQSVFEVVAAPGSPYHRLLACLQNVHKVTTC
UniProt P42858: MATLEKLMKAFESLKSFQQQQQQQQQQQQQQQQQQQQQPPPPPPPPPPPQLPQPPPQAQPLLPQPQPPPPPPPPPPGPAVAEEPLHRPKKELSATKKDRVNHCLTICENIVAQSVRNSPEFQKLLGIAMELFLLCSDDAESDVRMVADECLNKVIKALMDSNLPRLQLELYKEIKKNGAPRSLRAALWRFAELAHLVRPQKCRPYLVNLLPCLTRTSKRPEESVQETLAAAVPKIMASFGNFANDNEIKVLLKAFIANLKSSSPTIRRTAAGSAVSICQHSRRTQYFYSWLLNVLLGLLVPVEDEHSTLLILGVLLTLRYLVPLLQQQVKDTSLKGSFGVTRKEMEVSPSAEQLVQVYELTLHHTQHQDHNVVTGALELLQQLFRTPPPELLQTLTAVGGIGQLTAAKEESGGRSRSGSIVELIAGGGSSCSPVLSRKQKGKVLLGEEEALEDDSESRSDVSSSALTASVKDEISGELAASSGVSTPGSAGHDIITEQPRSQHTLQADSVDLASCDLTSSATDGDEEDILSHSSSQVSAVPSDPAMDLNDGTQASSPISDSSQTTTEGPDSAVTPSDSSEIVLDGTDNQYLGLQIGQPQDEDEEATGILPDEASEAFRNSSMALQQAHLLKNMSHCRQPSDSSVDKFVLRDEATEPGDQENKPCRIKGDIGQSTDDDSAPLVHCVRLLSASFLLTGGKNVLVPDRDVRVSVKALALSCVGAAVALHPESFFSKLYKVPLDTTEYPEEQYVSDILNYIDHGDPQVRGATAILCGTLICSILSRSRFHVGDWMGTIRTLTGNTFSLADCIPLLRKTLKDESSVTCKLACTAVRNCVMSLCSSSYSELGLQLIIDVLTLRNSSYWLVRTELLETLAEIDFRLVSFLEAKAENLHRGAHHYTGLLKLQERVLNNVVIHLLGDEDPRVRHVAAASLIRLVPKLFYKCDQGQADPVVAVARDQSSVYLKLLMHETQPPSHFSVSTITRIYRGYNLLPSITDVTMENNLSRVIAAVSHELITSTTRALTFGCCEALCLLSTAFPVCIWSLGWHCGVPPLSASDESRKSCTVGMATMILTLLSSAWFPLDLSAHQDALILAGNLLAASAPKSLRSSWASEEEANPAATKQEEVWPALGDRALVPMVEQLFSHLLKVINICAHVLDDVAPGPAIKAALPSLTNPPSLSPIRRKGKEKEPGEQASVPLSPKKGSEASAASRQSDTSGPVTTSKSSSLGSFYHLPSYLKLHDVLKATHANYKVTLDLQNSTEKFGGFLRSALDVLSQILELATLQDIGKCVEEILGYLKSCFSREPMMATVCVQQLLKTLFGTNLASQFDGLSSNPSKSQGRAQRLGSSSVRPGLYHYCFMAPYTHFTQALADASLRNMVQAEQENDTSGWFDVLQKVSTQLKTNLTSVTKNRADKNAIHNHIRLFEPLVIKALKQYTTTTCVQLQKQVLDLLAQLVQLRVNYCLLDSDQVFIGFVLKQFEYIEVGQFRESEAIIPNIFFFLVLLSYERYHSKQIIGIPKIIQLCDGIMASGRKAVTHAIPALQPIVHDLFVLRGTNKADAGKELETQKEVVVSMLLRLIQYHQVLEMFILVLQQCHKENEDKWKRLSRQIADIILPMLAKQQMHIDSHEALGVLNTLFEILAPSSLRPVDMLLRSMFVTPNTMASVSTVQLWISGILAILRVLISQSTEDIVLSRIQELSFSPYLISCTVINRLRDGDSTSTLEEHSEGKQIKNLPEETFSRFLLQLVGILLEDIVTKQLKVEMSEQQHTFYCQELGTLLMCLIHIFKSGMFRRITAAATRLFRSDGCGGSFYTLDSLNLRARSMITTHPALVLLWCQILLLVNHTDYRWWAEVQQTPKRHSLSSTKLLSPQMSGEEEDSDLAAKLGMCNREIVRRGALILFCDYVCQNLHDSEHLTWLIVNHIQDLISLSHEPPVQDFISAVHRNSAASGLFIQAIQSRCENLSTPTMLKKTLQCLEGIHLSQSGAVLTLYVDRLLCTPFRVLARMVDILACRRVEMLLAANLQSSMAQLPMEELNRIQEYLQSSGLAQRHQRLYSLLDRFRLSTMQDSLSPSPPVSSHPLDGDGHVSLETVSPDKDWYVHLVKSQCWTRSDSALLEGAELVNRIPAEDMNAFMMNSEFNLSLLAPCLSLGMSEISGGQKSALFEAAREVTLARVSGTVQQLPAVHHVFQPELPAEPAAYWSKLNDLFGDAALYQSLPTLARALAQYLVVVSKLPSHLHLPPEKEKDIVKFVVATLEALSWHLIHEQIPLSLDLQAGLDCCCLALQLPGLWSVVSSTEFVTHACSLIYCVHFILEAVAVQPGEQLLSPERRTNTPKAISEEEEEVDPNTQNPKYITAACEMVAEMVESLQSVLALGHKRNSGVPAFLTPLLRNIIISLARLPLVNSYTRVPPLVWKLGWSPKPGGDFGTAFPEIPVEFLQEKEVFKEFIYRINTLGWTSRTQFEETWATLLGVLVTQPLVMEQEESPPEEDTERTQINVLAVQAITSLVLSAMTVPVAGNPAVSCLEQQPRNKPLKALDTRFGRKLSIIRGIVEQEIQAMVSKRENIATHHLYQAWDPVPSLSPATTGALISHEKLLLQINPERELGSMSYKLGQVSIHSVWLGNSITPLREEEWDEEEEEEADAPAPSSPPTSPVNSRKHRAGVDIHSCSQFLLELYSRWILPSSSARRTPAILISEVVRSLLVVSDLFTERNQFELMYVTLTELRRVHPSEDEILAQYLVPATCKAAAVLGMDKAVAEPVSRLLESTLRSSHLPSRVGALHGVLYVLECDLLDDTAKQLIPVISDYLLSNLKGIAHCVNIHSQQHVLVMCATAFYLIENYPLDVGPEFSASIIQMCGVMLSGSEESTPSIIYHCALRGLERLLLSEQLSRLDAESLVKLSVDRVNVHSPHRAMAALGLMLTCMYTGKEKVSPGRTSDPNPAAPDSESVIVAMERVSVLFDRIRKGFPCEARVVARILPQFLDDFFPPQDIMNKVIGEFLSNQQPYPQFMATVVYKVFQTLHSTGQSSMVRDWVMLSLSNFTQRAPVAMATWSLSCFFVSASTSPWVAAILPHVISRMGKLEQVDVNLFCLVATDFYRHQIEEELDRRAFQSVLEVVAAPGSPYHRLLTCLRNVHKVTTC
UniProt P15927: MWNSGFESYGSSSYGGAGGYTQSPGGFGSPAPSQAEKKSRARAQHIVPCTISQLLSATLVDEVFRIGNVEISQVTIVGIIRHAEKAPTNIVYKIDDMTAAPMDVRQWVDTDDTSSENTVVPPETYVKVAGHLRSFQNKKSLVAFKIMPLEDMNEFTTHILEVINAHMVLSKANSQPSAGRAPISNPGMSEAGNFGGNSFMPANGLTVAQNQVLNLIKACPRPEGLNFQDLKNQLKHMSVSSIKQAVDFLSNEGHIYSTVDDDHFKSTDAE

Experiment [1] concerns the target normal huntingtin (htt), endogenous in striatum of WT C57BL/6J mice (mouse (endogenous in striatum of C57BL/6J mice)) (UniProt P42859). Kind of experiment: affinity purification with mass spectrometry; striatal tissue of WT and HdhQ(150/150) mice lysed in IP Lysis buffer; anti-Htt antibody mix (MAB2166, MAB2168, MAB2170) on Protein G Dynabeads; washed with 50mM TEAB; trypsin digest off the beads; DIA LC-MS/MS.

The target in experiment [2] is huntingtin (htt), endogenous in NIH393T cells (human (endogenous in NIH393T cells, which the paper calls human)) (UniProt P42858). Briefly: affinity purification with mass spectrometry; NIH393T cell pellets, untransfected or overexpressing htt (26Q) or mhtt (51Q), lysed in IP Lysis buffer; anti-Htt antibody mix (MAB2166, MAB2168, MAB2170) on Protein G Dynabeads; washed with 50mM TEAB; trypsin digest off the beads; DIA LC-MS/MS.

Results are given in words; binding and its absence hold for the method and conditions named. Binding seen in cells or lysates may run through a third protein. A yes stands for co-enrichment or nearness to the bait. Other partners may have been found.

For the substance “Ku70 (X-ray repair cross-complementing 6), mouse striatum (from UniProt P23475 1-608)”, the binding result in experiment [1] was “binds”. Take “Ku70, endogenous in NIH393T cells (from UniProt P12956 1-609)”: the binding entry in experiment [2] is recorded as “binds”. Regarding “Ku80 (X-ray repair cross-complementing 5), mouse striatum (from UniProt P27641 1-732)”, in experiment [1], the binding result is “binds”.

For “Ku80, endogenous in NIH393T cells (from UniProt P13010 1-732)”, the binding entry in experiment [2] was “binds”.

As for “RPA1, endogenous in NIH393T cells (from UniProt P27694 1-616)”, in experiment [2], the binding entry is listed as “binds”. The same measure, in the same setting: the result for “RPA2, endogenous in NIH393T cells (from UniProt P15927 1-270)” reads “binds”. As for “RPA14, mouse striatum (from UniProt Q9CQ71 1-121)”, the binding entry in experiment [1] is listed as “binds”. On the same count and under the same terms, to “RPA32, mouse striatum (from UniProt Q62193 1-270)” belongs “binds”; to “RPA170, mouse striatum (from UniProt Q8VEE4 1-623)”, “binds”.
